Reference: PMC10743781
These are yes or no findings as the source states them, for the method shown. In cells and extracts the contact can be indirect. Some binding calls cover weakened binding; strength is not graded here. Where a sequence is shown, tags or fusion partners need not be part of it. Values belong to the binder of their own block, whether it stands above or below them.

Amino acid sequences for entries named in this document (tags omitted).
UniProt P31750: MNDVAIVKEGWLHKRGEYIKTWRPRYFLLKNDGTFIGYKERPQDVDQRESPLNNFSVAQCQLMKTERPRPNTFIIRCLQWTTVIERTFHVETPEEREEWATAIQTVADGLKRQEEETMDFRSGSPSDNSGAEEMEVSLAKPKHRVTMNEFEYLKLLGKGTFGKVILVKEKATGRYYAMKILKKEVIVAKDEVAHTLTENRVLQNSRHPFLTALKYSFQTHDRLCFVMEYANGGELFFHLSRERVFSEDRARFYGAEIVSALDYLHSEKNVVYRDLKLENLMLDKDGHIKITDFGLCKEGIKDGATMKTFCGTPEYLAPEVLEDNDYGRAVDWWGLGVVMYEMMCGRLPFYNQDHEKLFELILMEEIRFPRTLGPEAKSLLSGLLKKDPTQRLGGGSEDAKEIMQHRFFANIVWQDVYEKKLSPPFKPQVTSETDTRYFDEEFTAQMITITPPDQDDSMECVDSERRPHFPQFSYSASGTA

Key:
[1] = molecular target: HA-Akt (wild type), in HeLa (UniProt P31750); experiment: co-IP; HeLa transfected with HA-Akt and Myc-BAG5, serum-starved overnight, then vehicle or 10 ng/mL HGF for 15 min; anti-HA immunoprecipitation, anti-Myc blot
[2] = molecular target: HA-Akt (full-length Akt1 tagged with HA), in HEK293T (UniProt P31750); experiment: co-IP; HEK293T cotransfected with HA-Akt and Myc-BAG5; TNTE lysis buffer (50 mM Tris pH 7.5, 150 mM NaCl, 1% Triton X-100, 5 mM EDTA); anti-HA immunoprecipitation, anti-Myc blot

binding [1]: binds
B1: Myc-BAG5, in HeLa (protein, UniProt Q9UL15 1-447)
chain: MDMGNQHPSISRLQEIQKEVKSVEQQVIGFSGLSDDKNYKKLERILTKQLFEIDSVDTEGKGDIQQARKRAAQETERLLKELEQNANHPHRIEIQNIFEEAQSLVREKIVPFYNGGNCVTDEFEEGIQDIILRLTHVKTGGKISLRKARYHTLTKICAVQEIIEDCMKKQPSLPLSEDAHPSVAKINFVMCEVNKARGVLIALLMGVNNNETCRHLSCVLSGLIADLDALDVCGRTEIRNYRREVVEDINKLLKYLDLEEEADTTKAFDLRQNHSILKIEKVLKRMREIKNELLQAQNPSELYLSSKTELQGLIGQLDEVSLEKNPCIREARRRAVIEVQTLITYIDLKEALEKRKLFACEEHPSHKAVWNVLGNLSEIQGEVLSFDGNRTDKNYIRLEELLTKQLLALDAVDPQGEEKCKAARKQAVRLAQNILSYLDLKSDEWEY

binding [2]: binds
B2: Myc-BAG5 (full-length BAG5 tagged with Myc), in HEK293T (protein, UniProt Q9UL15 1-447)
chain: B1 chain
